Experimental data published in article PMC11173052, “The Development of Robust Antibodies to Sarcospan, a Dystrophin- and Integrin-Associated Protein, for Basic and Translational Research” (International Journal of Molecular Sciences, 2024).
These are yes or no findings as the source states them, for the method shown. Some results given as binding are weak or reduced against the parent protein; the word gives no strength.

Key:
[1] = molecular target: mouse sarcospan (mSSPN) (mouse) (UniProt Q62147); assay: oligomer bands on immunoblot of immunoprecipitated protein (reducing SDS-PAGE); quadriceps lysates (50 mM Tris, 150 mM NaCl, 1% NP-40, pH 7.4) of hSSPN-TG, mSSPN-TG, WT and SSPN-null mice immunoprecipitated with anti-SSPN monoclonal antibodies on protein A/G PLUS-agarose; eluates resolved by SDS-PAGE under reducing conditions and blotted with E2 or 10B8
[2] = molecular target: human sarcospan (hSSPN) (human) (UniProt Q14714); assay: as above

Binder | binding [1] | binding [2]
mouse sarcospan (mSSPN) (natural protein, UniProt Q62147 1-216, looked up, sarcospan, mouse, GenBank U02487; 25-kDa protein with four transmembrane domains; seen as monomer and as a dimer band on reducing SDS-PAGE of immunoprecipitates; also called mouse SSPN; murine SSPN; source: endogenous (wild type) or transgenic overexpression (mSSPN-TG, Ln28), mouse quadriceps muscle lysate) MGRKPSPRAQELPEEEARTCCGCRFPLLLALLQLALGIAVTVLGFLMASISPSLLVRDTPFWAGSIVCVVAYLGLFMLCVSYQVDERTCVQFSMKVFYFLLSALGLMVCMLAVAFAAHHYSLLAQFTCETSLDSCQCKLPSSEPLSRAFVYRDVTDCTSVTGTFKLFLIIQMVLNLVCGLVCLLACFVMWKHRYQVFYVGVGLRSLMASDGQLPKA | binds | –
human sarcospan (hSSPN) (natural protein, UniProt Q14714 1-243, looked up, sarcospan, human, GenBank AF016028; hSSPN-TG muscle also holds endogenous mouse SSPN; also called human SSPN; source: transgenic overexpression in mouse skeletal muscle (hSSPN-TG, Ln3), quadriceps muscle lysate) MGKNKQPRGQQRQGGPPAADAAGPDDMEPKKGTGAPKECGEEEPRTCCGCRFPLLLALLQLALGIAVTVVGFLMASISSSLLVRDTPFWAGIIVCLVAYLGLFMLCVSYQVDERTCIQFSMKLLYFLLSALGLTVCVLAVAFAAHHYSQLTQFTCETTLDSCQCKLPSSEPLSRTFVYRDVTDCTSVTGTFKLFLLIQMILNLVCGLVCLLACFVMWKHRYQVFYVGVRICSLTASEGPQQKI | – | binds
